# According to PubChem BioAssay AID504467 (National Center for Advancing Translational Sciences (NCATS), 2011):
# In all, about 330,000 compounds went through this assay and about 7,700 (2.3%) were called active. The shares of active, inactive and inconclusive entries below differ from those in the screen. The call rests on the fitted dose curve; in most records, active means well fitted inhibition curve with a large enough effect; inconclusive means small, poorly fitted or top-dose-only effect, or effect the other way; inactive means flat fitted curve, though single readings scatter. Potencies of inconclusive entries are doubtful fits and often do not repeat.
# Test: qHTS screen for small molecules that inhibit ELG1-dependent DNA repair in human embryonic kidney (HEK293T) cells expressing luciferase-tagged ELG1; further: nearly all actives have a fitted effect of over 55% in size
# Settings: HEK293T ELG1-luciferase reporter, luminescence, 16 h, DNA damage induced by 5-fluorouridine; series mostly up to 46.1 µM
# Outline: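 Reporter activity after DNA damage by 5-fluorouridine is monitored. Compound-treated cells incubate 16 hr at 37 °C, then ONE-Glo is added for 30 min before luminescence reading.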
# Potency means the concentration at half of the fitted maximal effect.
row,Compound,Potency
1,CCOc1ccc(-n2c(=S)sc3c(=O)n(-c4ccc(F)cc4)c(SCC(=O)O)nc32)cc1,inactive
2,S=C(c1ccc(OCc2ccccc2)cc1)N1CCCC1,"inconclusive: 35.5 µM [activator, single point]"
3,CC(OC(=O)c1ccccn1)C(=O)Nc1nc(-c2ccc(F)c(F)c2)cs1 (stereo not given),"inconclusive: 14.6 µM [activator, partial curve]"
4,CC[C@@H]1CCCCc2ccccc2[C@H](C(=O)C[C@@H](O)CC(C)=O)OC1=O,"inconclusive: 9.2 µM [activator, partial curve, poor fit]"
5,CC(=O)Oc1cccc(N2C(=O)c3cccc4c([N+](=O)[O-])ccc(c34)C2=O)c1,inactive
6,O=C(Nc1ccc(N2CCOCC2)c(S(=O)(=O)Nc2ccccc2Cl)c1)c1ccc(F)cc1,active: 18.3 µM
7,CCN1CCN(c2nc3sc4c(c3c3ncnn23)CC(C)CC4)CC1 (stereo not given),"inconclusive: 20.6 µM [activator, partial curve]"
8,CC(Oc1ccccc1)c1ccnc(N)n1 (stereo not given),inactive
9,CC1(C)OC(c2ccccc2)=C/C(=C/C=C2C(=O)c3ccccc3C2=O)O1,inactive
10,Cc1ccc2c(C)c(C(=O)N(C)C(C)c3ccon3)oc2c1C (stereo not given),"inconclusive: 16.4 µM [activator, partial curve]"
11,CC(C(=O)Nc1ccc(F)cc1Cl)N1CCN(S(=O)(=O)c2cccs2)CC1 (stereo not given),"inconclusive: 29.1 µM [inhibitor, single point]"
12,CCC1(c2ccccc2)ON(c2c(Br)cccc2Br)C1=O (stereo not given),"inconclusive: 23.1 µM [inhibitor, single point]"
13,CCOC(=O)C1C(=O)Oc2ccc3ccccc3c2C1C1CCOC1=O (stereo not given),inactive
14,CCOC(=O)c1nn(-c2c(C)n(C)n(-c3ccccc3)c2=O)cc1O,inactive
15,Cc1ccccc1C(=O)N1CCC(C(=O)N2CCN(S(=O)(=O)c3ccccc3F)CC2)CC1,"inconclusive: 23.1 µM [inhibitor, partial curve, poor fit]"
16,C/C(=N/NC(=O)c1ccc(C)s1)c1cccc(NC(=O)COc2ccc(Cl)cc2C)c1,inactive
17,CC1CCN(CCCCOc2ccc([N+](=O)[O-])cc2)CC1,inactive
18,Nc1nnc(/C=C/c2ccccc2)s1,"inconclusive: 20.6 µM [activator, partial curve]"
19,COc1ccc2nc(C3CCCCC3)nc(C3CCCCC3)c2c1,"inconclusive: 22.4 µM [activator, single point]"
20,CNC(=O)CSCCn1c(SCC(=O)NC)nc2ccccc2c1=O,"inconclusive: 18.4 µM [activator, single point]"
21,O=C(Cn1c(=O)n(Cc2ccco2)c(=O)c2c3c(sc21)CCCC3)Nc1ccccc1,"inconclusive: 32.6 µM [inhibitor, partial curve, poor fit]"
22,CCOc1ccc2c(c1)nc(SCC(=O)c1cccs1)n2C,"inconclusive: 29.1 µM [activator, single point]"
23,Oc1ccc(-c2csc(Nc3ncccn3)n2)c(O)c1,"inconclusive: 2.59 µM [activator, partial curve]"

row,Compound,Potency
1,Cc1ccc(NC(=O)C2C3C=CC4(CN(Cc5cccnc5)C(=O)C24)O3)cc1 (stereo not given),"inconclusive: 18.4 µM [activator, single point]"
2,Cc1nn(C)c(C)c1S(=O)(=O)N1CCCC(C(=O)N2CCN(c3ccccc3)CC2)C1 (stereo not given),inactive
3,COCCn1c(=O)[nH]c(=O)c2c1nc(-c1cc(Br)c3c(c1)OCO3)n2Cc1ccccc1,"inconclusive: 23.1 µM [activator, single point]"
4,COc1ccc(CCNC(=O)C(=O)N2CCCCC2)cc1OC,"inconclusive: 18.4 µM [activator, partial curve, poor fit]"
5,COc1ccccc1N1CCN(C2CCCN(C(=O)CCN3CCCCO3)C2)CC1 (stereo not given),inactive
6,COc1ccc(C(=O)N2CCN(S(=O)(=O)c3ccc(C)cc3C)CC2)cc1OC,"inconclusive: 23.1 µM [inhibitor, single point]"
7,Cn1c(-c2cccs2)nc2ccccc21,"inconclusive: 7.3 µM [activator, partial curve]"
8,CCCCCn1c(=O)[nH]c2c(c1=O)CCC2,"inconclusive: 29.1 µM [activator, single point]"
9,COc1ccc(S(=O)(=O)NC2CC(=O)N(c3ccc(C)c(C)c3)C2)cc1 (stereo not given),inactive
10,CCOC(=O)N1CCN(Cc2nc(C3CC3)no2)CC1,"inconclusive: 18.3 µM [activator, partial curve]"
11,CNc1ncc(C(=O)C(C)(C)C)s1,"inconclusive: 29.1 µM [activator, partial curve, poor fit]"
12,O=C(Cn1ncc(Cl)c(Cl)c1=O)N1CCN(S(=O)(=O)c2ccc3ccccc3c2)CC1,"inconclusive: 29.1 µM [inhibitor, single point]"
13,Cc1ccc(CCN2C(Nc3ccccc3)=NC[C@@H]2C)cc1,inactive
14,O=C(NC1CCCCCCC1)c1c(O)c2ccccc2[nH]c1=O,"inconclusive: 8.91 µM [activator, partial curve]"
15,COc1ccc(-c2oc3ccccc3c2C(=O)Oc2ccccc2)cc1,"inconclusive: 4.61 µM [activator, single point]"
16,CNc1c([N+](=O)[O-])cnn1-c1cccc(Cl)n1,"inconclusive: 23.1 µM [activator, partial curve, poor fit]"
17,COc1cccc(C(=O)OCCN2CCOCC2)c1,"inconclusive: 20.6 µM [activator, partial curve, poor fit]"
18,CC(=O)N(O)CCCCCNC(=O)CCC(=O)N(O)CCCCCNC(=O)CCC(=O)N(O)CCCCCN,inactive
19,CN=C1S/C(=C\c2ccc(N3CCOCC3)cc2C)C(=O)N1C,active: 8.2 µM
20,Cc1csc(NC(=O)c2cc3c(s2)CCC3)n1,"inconclusive: 0.58 µM [activator, full curve]"
21,CCC(C)[C@H](NC(=O)[C@@H]1Cc2c([nH]c3ccccc23)C2c3ccccc3C(=O)N21)C(=O)NCC1CCCO1 (stereo not given in full),inactive
22,COc1ccccc1Cn1c(=O)c2ccccc2n2c(SCC(=O)N3CCCCC3)nnc12,"inconclusive: 16.4 µM [inhibitor, single point]"

# Given with bars between the fields: entries from further up
row | Compound | Potency
5 | COc1ccccc1N1CCN(C2CCCN(C(=O)CCN3CCCCO3)C2)CC1 (stereo not given) | inactive
6 | COc1ccc(C(=O)N2CCN(S(=O)(=O)c3ccc(C)cc3C)CC2)cc1OC | inconclusive: 23.1 µM [inhibitor, single point]
7 | Cn1c(-c2cccs2)nc2ccccc21 | inconclusive: 7.3 µM [activator, partial curve]
8 | CCCCCn1c(=O)[nH]c2c(c1=O)CCC2 | inconclusive: 29.1 µM [activator, single point]
9 | COc1ccc(S(=O)(=O)NC2CC(=O)N(c3ccc(C)c(C)c3)C2)cc1 (stereo not given) | inactive
10 | CCOC(=O)N1CCN(Cc2nc(C3CC3)no2)CC1 | inconclusive: 18.3 µM [activator, partial curve]
11 | CNc1ncc(C(=O)C(C)(C)C)s1 | inconclusive: 29.1 µM [activator, partial curve, poor fit]
12 | O=C(Cn1ncc(Cl)c(Cl)c1=O)N1CCN(S(=O)(=O)c2ccc3ccccc3c2)CC1 | inconclusive: 29.1 µM [inhibitor, single point]
13 | Cc1ccc(CCN2C(Nc3ccccc3)=NC[C@@H]2C)cc1 | inactive
14 | O=C(NC1CCCCCCC1)c1c(O)c2ccccc2[nH]c1=O | inconclusive: 8.91 µM [activator, partial curve]
15 | COc1ccc(-c2oc3ccccc3c2C(=O)Oc2ccccc2)cc1 | inconclusive: 4.61 µM [activator, single point]
16 | CNc1c([N+](=O)[O-])cnn1-c1cccc(Cl)n1 | inconclusive: 23.1 µM [activator, partial curve, poor fit]
17 | COc1cccc(C(=O)OCCN2CCOCC2)c1 | inconclusive: 20.6 µM [activator, partial curve, poor fit]
